Measurements as given in publication PMC9827110.
No constants are given. Whether binding was seen depends on the method and setting. In cells and extracts the contact can be indirect. Some results given as binding are weak or reduced against the parent protein; the word gives no strength.

Sequences of proteins named here, by UniProt entry; tags and fusion partners are left off.
UniProt P03129: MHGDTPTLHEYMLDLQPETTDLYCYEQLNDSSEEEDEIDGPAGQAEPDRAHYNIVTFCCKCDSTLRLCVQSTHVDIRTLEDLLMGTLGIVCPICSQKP

Target: HPV16-E7, 3xMYC-tagged (human papillomavirus 16) (UniProt P03129)
Experiment: co-IP; U2OS transfected with 3xMYC-tagged E7; 24 h 1 umol/L MG-132; lysate on anti-MYC agarose beads 2 h at 4 C; immunoblot

B1: pRB, endogenous in U2OS (protein, UniProt P06400 1-928)
chain: MPPKTPRKTAATAAAAAAEPPAPPPPPPPEEDPEQDSGPEDLPLVRLEFEETEEPDFTALCQKLKIPDHVRERAWLTWEKVSSVDGVLGGYIQKKKELWGICIFIAAVDLDEMSFTFTELQKNIEISVHKFFNLLKEIDTSTKVDNAMSRLLKKYDVLFALFSKLERTCELIYLTQPSSSISTEINSALVLKVSWITFLLAKGEVLQMEDDLVISFQLMLCVLDYFIKLSPPMLLKEPYKTAVIPINGSPRTPRRGQNRSARIAKQLENDTRIIEVLCKEHECNIDEVKNVYFKNFIPFMNSLGLVTSNGLPEVENLSKRYEEIYLKNKDLDARLFLDHDKTLQTDSIDSFETQRTPRKSNLDEEVNVIPPHTPVRTVMNTIQQLMMILNSASDQPSENLISYFNNCTVNPKESILKRVKDIGYIFKEKFAKAVGQGCVEIGSQRYKLGVRLYYRVMESMLKSEEERLSIQNFSKLLNDNIFHMSLLACALEVVMATYSRSTSQNLDSGTDLSFPWILNVLNLKAFDFYKVIESFIKAEGNLTREMIKHLERCEHRIMESLAWLSDSPLFDLIKQSKDREGPTDHLESACPLNLPLQNNHTAADMYLSPVRSPKKKGSTTRVNSTANAETQATSAFQTQKPLKSTSLSLFYKKVYRLAYLRLNTLCERLLSEHPELEHIIWTLFQHTLQNEYELMRDRHLDQIMMCSMYGICKVKNIDLKFKIIVTAYKDLPHAVQETFKRVLIKEEEYDSIIVFYNSVFMQRLKTNILQYASTRPPTLSPIPHIPRSPYKFPSSPLRIPGGNIYISPLKSPYKISEGLPTPTKMTPRSRILVSIGESFGTSEKFQKINQMVCNSDRVLKRSAEGSNPPKPLKKLRFDIEGSDEADGSKHLPGESKFQQKLAEMTSTRTRMQKQKMNDSMDTSNKEEK
- binding: binds
